The supplement of paper PMC12425257
± gives the standard deviation of the averaged measurements. This is one part of the list.

What follows are compounds tested on Madurella mycetomatis MM55 (assay: metabolic activity (growth) relative to DMSO growth control; higher = more fungal growth). Settings: 1 µM.

| SMILES | metabolic activity |
| --- | --- |
| COc1cc(N2CCN(C(C)C)CC2)ccc1Nc1nc(Nc2ccc(F)cc2C(=O)NC[C@@H](O)CO)c2cc[nH]c2n1 | 96 ± 22% |
| COc1ccc2c(-c3ccnc(Nc4cccc(OC(F)(F)F)c4)n3)cnn2n1 | 69.4 ± 3.4% |
| O=S(=O)(NCCNC/C=C/c1ccc(Br)cc1)c1cccc2cnccc12 | 103 ± 17% |
| COc1cc(C(=O)NC2CCN(C)CC2)ccc1Nc1ncc2c(n1)N(C1CCCC1)CC(F)(F)C(=O)N2C | 100 ± 4.1% |
| O=C(Nc1n[nH]c2nc(-c3ccccc3)c(Br)cc12)C1CC1 | 99.2 ± 10% |
| Cc1cccc(-c2cc(Nc3ccncc3)c3ccccc3n2)n1 | 136 ± 71% |
| Nc1nonc1-n1ncc2c(NC(=O)c3ccccc3Cl)cccc21 | 99.1 ± 17% |
| CN(C)C/C=C/C(=O)Nc1ccc(C(=O)Nc2cccc(Nc3ncc(Cl)c(-c4c[nH]c5ccccc45)n3)c2)cc1 | 111 ± 22% |
| CCN(C)S(=O)(=O)Nc1cccc(-c2ccc3c(NC(=O)C4CC4)n[nH]c3c2)c1 | 108 ± 38% |
| Cc1cc(-c2ccc3c(c2)CC[C@@H](N[C@@H](C)c2ccccc2)C3)cnc1N | 93.1 ± 28% |
| CN1c2ccsc2C(=O)Nc2cnc(Nc3ccc(S(=O)(=O)NCCCNC(=O)OC(C)(C)C)cc3)nc21 | 92.5 ± 1.1% |
| O=C(NCCCN1CCOC1=O)c1cnc(NCc2cc(Cl)ccc2Cl)nc1NC1CCCC1 | 92.1 ± 7.8% |
| CC(=O)c1cccc(NC(=O)NC2CCN(c3ccnc(Nc4ccc(F)cc4)n3)C2)c1 (configuration not stated) | 98.5 ± 2.9% |
| Cc1cccc(-c2cnc3occ(-c4ccc(C(=O)O)c(C5CCCC5)c4)c3c2)c1 | 73.2 ± 17% |
| CNc1nc(Nc2ccc(C(=O)N3CCOCC3)cc2OC)ncc1Cl | 85.4 ± 18% |
| CN1C(=O)[C@@H](NC(=O)c2cc(Cc3ccccc3)on2)COc2ccccc21 | 95.4 ± 16% |
| CN(C)Cc1nc2c(sc3ccc(-c4ccc(O)cc4)cc32)c(=O)[nH]1.Cl | 98.9 ± 21% |
| CN1CCN(c2ccc(Nc3cc(Cc4ccccc4)cnc3C(N)=O)cc2Cl)CC1.O=C(O)C(F)(F)F | 88.7 ± 7.2% |

| SMILES | metabolic activity |
| --- | --- |
| COc1ccc2[nH]c3c4[nH]c5ccc(OC)cc5c4c4c(c3c2c1)C(=O)NC4=O | 115 ± 24% |
| CC[C@@H](CO)Nc1nc(Nc2cccc(NC(=O)C(C)(C)C)c2)ncc1F | 107 ± 7.5% |
| Cc1ccc(NC(=O)c2cc(N3CCOCC3)cc(S(F)(F)(F)(F)F)c2)cc1Nc1cc(-c2cn[nH]c2)nn1C | 106 ± 2.9% |
| CC(=O)c1c(C)c2cnc(Nc3ccn(C)n3)nc2n(C2CCCC2)c1=O | 112 ± 35% |
| CNC(=O)CN1CCC(C(=O)Nc2ncc(SCc3ncc(C(C)(C)C)o3)s2)CC1 | 91.1 ± 2.4% |
| CCOc1ccc2c(-c3ccnc(Nc4cc(N5CCOCC5)cc(C(F)(F)F)c4)n3)cnn2n1 | 74.7 ± 10% |
| Nc1nc(-c2cccc(Cl)c2)c(-c2ccc3ncccc3n2)s1 | 92.5 ± 26% |
| CN(C)CCN(C)C(=O)c1cc(-c2ccncc2)c(-c2ccc(Cl)c(O)c2)o1 | 101 ± 17% |
| NS(=O)(=O)c1ccc(Nc2ncc(-c3ccccc3)o2)cc1 | 79.3 ± 3.6% |
| CC1=C(C(=O)Nc2ccc3[nH]ncc3c2)C(c2ccc(Cl)c(Cl)c2)CC(=O)N1 (configuration not stated) | 102 ± 16% |
| CCCCN(Cc1ccccc1)C(=O)c1ccc(S(=O)(=O)Nc2ccccc2)cc1 | 98.5 ± 36% |
| Cc1nnc(-c2ccc3occ(-c4ccc(S(C)=O)cc4)c3c2)[nH]1 (configuration not stated) | 88.1 ± 9.7% |
| COC(=O)Nc1nc2ccc(Oc3ccc(NC(=O)Nc4cc(C(F)(F)F)ccc4F)cc3)cc2s1.Cl | 94.6 ± 46% |
| CCc1cc(Nc2nccc(-c3c(-c4ccc(OC)c(C(=O)Nc5c(F)cccc5F)c4)nc4ccccn34)n2)c(OC)cc1N1CCC(N2CCN(S(C)(=O)=O)CC2)CC1 | 111 ± 15% |
| C=CC(=O)Nc1cc(-n2c(=O)ccc3cnc4ccc(-c5ccc(NS(C)(=O)=O)cc5)cc4c32)ccc1C | 85.4 ± 18% |
| CC(C)(O)c1nnc2ccc(-c3c(-c4ccc(F)cc4F)nc4n3CCC4)nn12 | 118 ± 6.2% |
| Cn1ccc2ncnc(Oc3ccc(Nc4nc5ccccc5[nH]4)cc3)c21 | 121 ± 20% |
| COCCOCC#Cc1cc(-c2n[nH]c3c2C(=O)c2cc(CN4CCN(C)CC4)ccc2-3)cs1 | 84.1 ± 21% |

Same assay, conditions: 2 µM

| SMILES | metabolic activity |
| --- | --- |
| COc1cc(N2CCN(C(C)C)CC2)ccc1Nc1nc(Nc2ccc(F)cc2C(=O)NC[C@@H](O)CO)c2cc[nH]c2n1 | 113 ± 18% |
| COc1ccc2c(-c3ccnc(Nc4cccc(OC(F)(F)F)c4)n3)cnn2n1 | 81 ± 5.9% |
| O=S(=O)(NCCNC/C=C/c1ccc(Br)cc1)c1cccc2cnccc12 | 131 ± 12% |
| COc1cc(C(=O)NC2CCN(C)CC2)ccc1Nc1ncc2c(n1)N(C1CCCC1)CC(F)(F)C(=O)N2C | 117 ± 7.4% |
| O=C(Nc1n[nH]c2nc(-c3ccccc3)c(Br)cc12)C1CC1 | 106 ± 12% |
| Cc1cccc(-c2cc(Nc3ccncc3)c3ccccc3n2)n1 | 83.7 ± 4.5% |
| Nc1nonc1-n1ncc2c(NC(=O)c3ccccc3Cl)cccc21 | 102 ± 25% |
| CN(C)C/C=C/C(=O)Nc1ccc(C(=O)Nc2cccc(Nc3ncc(Cl)c(-c4c[nH]c5ccccc45)n3)c2)cc1 | 76.9 ± 25% |
| CCN(C)S(=O)(=O)Nc1cccc(-c2ccc3c(NC(=O)C4CC4)n[nH]c3c2)c1 | 98.3 ± 11% |
| Cc1cc(-c2ccc3c(c2)CC[C@@H](N[C@@H](C)c2ccccc2)C3)cnc1N | 111 ± 4.3% |
| CN1c2ccsc2C(=O)Nc2cnc(Nc3ccc(S(=O)(=O)NCCCNC(=O)OC(C)(C)C)cc3)nc21 | 132 ± 3.7% |
| O=C(NCCCN1CCOC1=O)c1cnc(NCc2cc(Cl)ccc2Cl)nc1NC1CCCC1 | 89 ± 13% |
| CC(=O)c1cccc(NC(=O)NC2CCN(c3ccnc(Nc4ccc(F)cc4)n3)C2)c1 (configuration not stated) | 103 ± 22% |
| Cc1cccc(-c2cnc3occ(-c4ccc(C(=O)O)c(C5CCCC5)c4)c3c2)c1 | 85.1 ± 35% |
| CNc1nc(Nc2ccc(C(=O)N3CCOCC3)cc2OC)ncc1Cl | 73.5 ± 0.92% |
| CN1C(=O)[C@@H](NC(=O)c2cc(Cc3ccccc3)on2)COc2ccccc21 | 108 ± 25% |
| CN(C)Cc1nc2c(sc3ccc(-c4ccc(O)cc4)cc32)c(=O)[nH]1.Cl | 94.3 ± 16% |
| CN1CCN(c2ccc(Nc3cc(Cc4ccccc4)cnc3C(N)=O)cc2Cl)CC1.O=C(O)C(F)(F)F | 76.48 ± 0.39% |

| SMILES | metabolic activity |
| --- | --- |
| COc1ccc2[nH]c3c4[nH]c5ccc(OC)cc5c4c4c(c3c2c1)C(=O)NC4=O | 96.7 ± 1.4% |
| CC[C@@H](CO)Nc1nc(Nc2cccc(NC(=O)C(C)(C)C)c2)ncc1F | 113 ± 21% |
| Cc1ccc(NC(=O)c2cc(N3CCOCC3)cc(S(F)(F)(F)(F)F)c2)cc1Nc1cc(-c2cn[nH]c2)nn1C | 112 ± 55% |
| CC(=O)c1c(C)c2cnc(Nc3ccn(C)n3)nc2n(C2CCCC2)c1=O | 70.6 ± 7.9% |
| CNC(=O)CN1CCC(C(=O)Nc2ncc(SCc3ncc(C(C)(C)C)o3)s2)CC1 | 120 ± 9.6% |
| CCOc1ccc2c(-c3ccnc(Nc4cc(N5CCOCC5)cc(C(F)(F)F)c4)n3)cnn2n1 | 72 ± 1.3% |
| Nc1nc(-c2cccc(Cl)c2)c(-c2ccc3ncccc3n2)s1 | 91.8 ± 10% |
| CN(C)CCN(C)C(=O)c1cc(-c2ccncc2)c(-c2ccc(Cl)c(O)c2)o1 | 85.3 ± 35% |
| NS(=O)(=O)c1ccc(Nc2ncc(-c3ccccc3)o2)cc1 | 105 ± 20% |
| CC1=C(C(=O)Nc2ccc3[nH]ncc3c2)C(c2ccc(Cl)c(Cl)c2)CC(=O)N1 (configuration not stated) | 106 ± 12% |
| CCCCN(Cc1ccccc1)C(=O)c1ccc(S(=O)(=O)Nc2ccccc2)cc1 | 102 ± 2.8% |
| Cc1nnc(-c2ccc3occ(-c4ccc(S(C)=O)cc4)c3c2)[nH]1 (configuration not stated) | 84.3 ± 3% |
| COC(=O)Nc1nc2ccc(Oc3ccc(NC(=O)Nc4cc(C(F)(F)F)ccc4F)cc3)cc2s1.Cl | 127 ± 21% |
| CCc1cc(Nc2nccc(-c3c(-c4ccc(OC)c(C(=O)Nc5c(F)cccc5F)c4)nc4ccccn34)n2)c(OC)cc1N1CCC(N2CCN(S(C)(=O)=O)CC2)CC1 | 96.5 ± 20% |
| C=CC(=O)Nc1cc(-n2c(=O)ccc3cnc4ccc(-c5ccc(NS(C)(=O)=O)cc5)cc4c32)ccc1C | 99.3 ± 33% |
| CC(C)(O)c1nnc2ccc(-c3c(-c4ccc(F)cc4F)nc4n3CCC4)nn12 | 113.1 ± 0.65% |
| Cn1ccc2ncnc(Oc3ccc(Nc4nc5ccccc5[nH]4)cc3)c21 | 93.1 ± 2% |
| COCCOCC#Cc1cc(-c2n[nH]c3c2C(=O)c2cc(CN4CCN(C)CC4)ccc2-3)cs1 | 97.9 ± 21% |
